# From the supplement of paper PMC3334620
# In all, about 33,000 sequences were measured (“E-score (-0.5 to 0.5)”: median about -0.0014, highest 2% from about 0.25 on). The list shows a part of the results.
# Target: T1, Cad1 (UniProt P24813)
# T1 sequence: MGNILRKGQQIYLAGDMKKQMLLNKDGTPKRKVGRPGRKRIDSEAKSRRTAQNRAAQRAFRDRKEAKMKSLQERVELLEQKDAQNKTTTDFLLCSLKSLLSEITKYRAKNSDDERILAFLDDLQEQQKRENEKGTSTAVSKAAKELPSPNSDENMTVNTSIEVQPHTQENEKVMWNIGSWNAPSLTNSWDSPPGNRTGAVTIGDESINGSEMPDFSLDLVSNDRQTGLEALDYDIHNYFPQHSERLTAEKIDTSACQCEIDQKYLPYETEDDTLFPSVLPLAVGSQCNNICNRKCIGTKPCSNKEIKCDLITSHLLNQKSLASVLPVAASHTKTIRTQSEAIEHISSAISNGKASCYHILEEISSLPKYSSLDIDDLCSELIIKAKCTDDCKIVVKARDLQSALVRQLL
# Experiment: PBM E-score (8-mer binding enrichment) (E-score (-0.5 to 0.5)); higher = stronger / more preferred TF binding
# Settings: protein concentration: 100 nM; construct: GST-full length
# Outline: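 GST-tagged yeast TFs (full-length or DNA-binding domain) were made by PURExpress in vitro transcription/translation and applied at about 100-200 nM to universal all-10-mer Agilent arrays. The arrays were made double-stranded by primer extension, on fresh or once-stripped slides. Bound protein was detected with fluorescent anti-GST, and scans were normalised with masliner. Each ungapped eight-base word, pooled with its reverse complement, received an E-score (modified Wilcoxon-Mann-Whitney statistic) from the Universal PBM Analysis Suite.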
row,Sequence,PBM E-score
1,ACAGTGTA,0.079
2,ACCCTTGA,0.054
3,CCCTCGAG,-0.101
4,AGTTGCGA,0.0659
5,ACCTGCAG,-0.111
6,AACTGTCA,-0.0317
7,CATCTCGC,0.018
8,AGCTAGTC,0.0904
9,AGATGACG,0.0256
10,AGAGCGAC,-0.135
11,AAAAACGC,0.137
12,CCTATGAG,-0.263
13,AAGACGTC,-0.0151
14,AAGATAAT,0.104
15,CCGCGGTC,-0.0125
16,GCGGTCAA,0.026
17,GCCCTAGC,-0.114
18,CATATTTA,0.232
19,AGTGGGGC,-0.235
20,GAAGTGCA,-0.0106
21,TCACGTCA,0.171
22,TTTGCAAA,0.224
23,GTCTAGCA,-0.00856
24,ACGGTAAA,0.0043
25,ACTCCAAG,-0.0466

row,Sequence,PBM E-score
1,TAAAGTGA,0.0686
2,GAACCAAA,-0.0432
3,AGCATAAA,-0.0572
4,AGCAGTCG,-0.227
5,AAAGGTAT,-0.0876
6,ACCGAAAT,0.0484
7,AGCCACCC,-0.214
8,ACGTCCAC,-0.049
9,AGCCCTTC,-0.197
10,CAGCTGCA,0.00474
11,CAAGTCTC,-0.347
12,CAACTAAG,0.0724
13,GCTGCGCC,-0.181
14,GATAAGAA,0.239
15,TGAAGACA,-0.0649
16,CGCGCCGA,0.0775
17,CCCGGCCA,-0.213
18,AGCCGACT,-0.0453
19,TCTGGGCA,-0.156
20,ACAAACAG,0.0175
21,AGAACGAA,0.0662
22,AGCCGTAC,-0.0329
23,CGAGCATC,0.0837
24,AATCTAGA,-0.0904
25,CGGACCGC,-0.139

row,Sequence,PBM E-score
1,GGTGCTCA,-0.128
2,ATCTAACG,0.0344
3,AGAAGCAC,-0.238
4,TGCCACCA,-0.256
5,ACGTTAAG,0.145
6,ACTGATAG,-0.0327
7,AGTAGGAC,-0.00349
8,AGATCAGA,-0.168
9,CGTTCTCC,-0.114
10,ACCTAAGC,-0.00145
11,CGGATACC,0.0705
12,AGGTTTCA,0.133
13,GAAGTGTC,0.032
14,ACTGAGTG,-0.0663
15,CCTGCTGC,0.039
16,ACTAAGCA,0.181
17,ACGCACCA,0.0756
18,ATCAGAGA,-0.0164
19,CATTCTAA,0.085
20,AATCACTC,0.0658
21,ACCCGCGT,-0.00317
22,CATATACC,-0.0196
23,GTTTCGCA,-0.0238
24,GGGGCAGA,-0.2
25,TACTATCA,0.212

row,Sequence,PBM E-score
1,CGATAGTA,0.0416
2,CGATTGAA,0.026
3,AGGCCACG,0.0286
4,TAGCGCGA,0.211
5,CTGTTTGC,0.0855
6,CTACATGA,-0.0554
7,CTAGGCGA,-0.124
8,GACTTTAC,0.119
9,ATTGTTCA,0.107
10,AGAAGGAA,-0.232
11,AGCGTTAA,0.0357
12,ACGTGTTA,0.17
13,AGATAGCA,0.0129
14,ACGGGAAC,0.0667
15,CCGAAGAG,-0.0285
16,GGGCGTGA,-0.136
17,GCCGCTTA,0.138
18,ACCGAGAG,-0.0599
19,AACGGACC,-0.0229
20,AGCTGTCG,-0.0586
21,CCAATGAG,-0.0921
22,ACAAGTTC,0.0636
23,TATACAAA,0.149
24,GTCGACAA,0.0867
25,AGGCAAAA,0.0512

row,Sequence,PBM E-score
1,ATCACAGA,0.116
2,AATTACGC,0.095
3,CTGACGGC,-0.137
4,GGAACTAA,0.0336
5,AGCCAGAT,-0.239
6,GTCAGCAC,0.261
7,CTTGATAA,0.227
8,ACTCTGTC,-0.0235
9,GCCACGAA,-0.0932
10,ATACTTTC,0.0272
11,AAAACAGA,-0.011
12,CGCTCGCA,0.121
13,CTTCCTAA,0.0434
14,CCGCACTA,0.122
15,CGTGGGAG,-0.109
16,CCGAACCC,-0.254
17,ACCCCCAT,-0.236
18,ATATGTCC,0.112
19,CCCCAAAC,-0.26
20,ACTCGAAG,-0.126
21,CCCTCTCA,-0.293
22,CCCGAGTA,0.11
23,TAATCCAA,0.255
24,CGCTACTA,0.276
25,GCCAAGTA,-0.13

# Look-ups from above.
# Entry of GAACCAAA under PBM E-score: -0.0432
# Entry of TACTATCA under PBM E-score: 0.212
# Entry of ACGTCCAC under PBM E-score: -0.049
# Entry of AGAAGCAC under PBM E-score: -0.238
# Entry of AGAGCGAC under PBM E-score: -0.135
# Entry of ACCCGCGT under PBM E-score: -0.00317

# (further entries)

row,Sequence,PBM E-score
1,ATAGAGAT,0.139
2,GAGTGCCA,-0.28
3,GCAGCCGA,0.067
4,GACAATGA,-0.0996
5,ATCATATC,0.163
6,ACATTGCG,0.0247
7,AACACCCA,-0.105
8,GCGCTGTA,0.107
9,GCACGAAA,0.197
10,ATTCGTGA,0.104
11,AACAACCG,0.0924
12,AAATATAT,0.305
13,ATCAACGA,0.13
14,CAGGACAC,0.0927
15,TATAATCA,0.31
16,TGCTGACA,0.334
17,CAAGAATC,0.0508
18,CGCAAAAA,0.185
19,AGTCCACA,-0.141
20,AGCGCCTC,-0.0985
21,CACTTCCA,-0.0966
22,ACAGTATG,0.0341
23,CGGGTTCA,0.052
24,CATATAAC,-0.0307
25,ACCCCACT,-0.0801

row,Sequence,PBM E-score
1,AACATTAT,0.141
2,CAGATGTA,-0.0786
3,AAGCACAG,0.0641
4,AAATGTAT,0.0386
5,CAAGCCGA,0.168
6,GGTCTTCA,-0.156
7,CCCTTCGC,-0.101
8,ACTCCGGG,0.073
9,TCTAGCCA,-0.0602
10,AAAGCAAC,0.0556
11,AACAGTCG,-0.00121
12,GGGGATAA,-0.0212
13,ACGGCGGA,0.00266
14,CCGGGCCC,-0.0165
15,AGTACCAA,0.0522
16,AGCACGTC,0.0443
17,CAAAGGGA,-0.0627
18,TGCGTTAA,-0.0188
19,CCATAGAA,-0.114
20,CAAATTCC,0.142
21,CACGGTTA,0.0415
22,GTATCACA,0.159
